Reference: paper PMC9403187
Results are given in words; binding and its absence hold for the method and conditions named. In cells and extracts the contact can be indirect. Binding calls can cover weak binding; strength is not graded here.

Biological target: MAYV GFP-nsP3 (wild type) (Mayaro virus)
Test: co-IP; GFP-Trap Magnetic Agarose on 400 µg lysate of transfected HeLa cells, 2 h at 4°C; lysis and wash in 50 mM Tris-HCl pH 8.0, 100 mM NaCl, 1 mM MgCl2, 1% Triton X-100; immunoblot for GFP, G3BP1 and G3BP2 (the paper calls it GFP pull-down)

B1: Ras-GTPase-activating SH3 domain-binding protein 2 (G3BP2) (protein, UniProt Q9UN86 1-482)
chain: MVMEKPSPLLVGREFVRQYYTLLNKAPEYLHRFYGRNSSYVHGGVDASGKPQEAVYGQNDIHHKVLSLNFSECHTKIRHVDAHATLSDGVVVQVMGLLSNSGQPERKFMQTFVLAPEGSVPNKFYVHNDMFRYEDEVFGDSEPELDEESEDEVEEEQEERQPSPEPVQENANSGYYEAHPVTNGIEEPLEESSHEPEPEPESETKTEELKPQVEEKNLEELEEKSTTPPPAEPVSLPQEPPKAFSWASVTSKNLPPSGTVSSSGIPPHVKAPVSQPRVEAKPEVQSQPPRVREQRPRERPGFPPRGPRPGRGDMEQNDSDNRRIIRYPDSHQLFVGNLPHDIDENELKEFFMSFGNVVELRINTKGVGGKLPNFGFVVFDDSEPVQRILIAKPIMFRGEVRLNVEEKKTRAARERETRGGGDDRRDIRRNDRGPGGPRGIVGGGMMRDRDGRGPPPRGGMAQKLGSGRGTGQMEGRFTGQRR
- binding: binds
